Results taken from PMC7819943, “Rice protein-binding microarrays: a tool to detect cis-acting elements near promoter regions in rice”.
The other results are listed elsewhere or left out.

Molecular target: T1, OsSMF1 (Oryza sativa, UniProt Q6ZLB0 1-436)
T1 sequence: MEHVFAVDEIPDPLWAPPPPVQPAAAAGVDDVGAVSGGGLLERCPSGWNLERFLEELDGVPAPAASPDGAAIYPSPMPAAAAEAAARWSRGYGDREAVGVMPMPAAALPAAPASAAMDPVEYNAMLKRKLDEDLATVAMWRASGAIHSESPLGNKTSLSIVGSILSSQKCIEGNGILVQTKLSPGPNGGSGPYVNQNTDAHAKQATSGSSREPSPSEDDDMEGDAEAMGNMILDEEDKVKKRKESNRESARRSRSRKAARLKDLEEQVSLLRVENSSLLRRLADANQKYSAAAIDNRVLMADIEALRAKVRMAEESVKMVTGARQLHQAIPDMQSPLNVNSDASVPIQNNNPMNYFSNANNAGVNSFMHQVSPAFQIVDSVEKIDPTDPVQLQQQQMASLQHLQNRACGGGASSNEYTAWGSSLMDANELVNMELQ
Experiment: protein-binding microarray (RPBM); PBS, 2% BSA, 51.3 ng/ul salmon testes DNA, 50 uM zinc acetate, 200 nM TF, 25 C, 1 h; high values mean tight binding
Conditions: protein: recombinant; tags: N-terminal polyhistidine and DsRed monomer fusion (pET32a); chain copies: 2; label: CyDye5-dUTP incorporated in the synthesized complementary strand; 3' TTTTT single-stranded linker to array surface; dsDNA, one strand shown
Outline: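 Transcription factors, each fused N-terminally to a polyhistidine tag and DsRed, were expressed in E. coli BL21-CodonPlus and purified on Ni–NTA. A custom Agilent array was made double-stranded by primer extension with Cy5-dUTP and blocked with 2% BSA. It was incubated with 200 nM protein in PBS, 2% BSA, salmon testes DNA and 50 µM zinc acetate at 25 °C for 1 h, then washed. The binding signal is per-feature fluorescence intensity (arbitrary units) read on an Axon 4000B scanner.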

Sequence	binding signal
GCCCAGAACACCTGCCACCCTTTCGGGATGACGTAGCCGCCGGAGTCACCTAGTGCAG	11000 fluorescence intensity (a.u.)
TGCCATGACCTAACCCATCTATTTTCACTTCACTTTTCCTCGGAGTCACCTAGTGCAG	4830 fluorescence intensity (a.u.)
GGCGATAGGCGGTGGAGGGCGGCGTGGCTGCACGTATTTTCGGAGTCACCTAGTGCAG	3900 fluorescence intensity (a.u.)
CATGGACTCGGCTCACAGATTCCGTCACACTTACATGTGGCGGAGTCACCTAGTGCAG	3560 fluorescence intensity (a.u.)
CGAGAGATCGATATCGATCGATCCCACATCATTTGGCCACCGGAGTCACCTAGTGCAG	3340 fluorescence intensity (a.u.)
ATGACTTAGTGACGATATGATCGGTCGATCTGGTGTTATGCGGAGTCACCTAGTGCAG	4040 fluorescence intensity (a.u.)
TCCAATCCTGCGTGGAGTAATTTATTTCAAGCGCAACAGGCGGAGTCACCTAGTGCAG	3630 fluorescence intensity (a.u.)
CAGGTGAACCCTCTAAGGCCATATTAGTTTTATATGCTGACGGAGTCACCTAGTGCAG	3220 fluorescence intensity (a.u.)
TGCTATCTACGTGGACTTAGTGTCGCCTGACTAATGTACCCGGAGTCACCTAGTGCAG	7800 fluorescence intensity (a.u.)
AACATCCACTACCGCTAGCCGCTCGTTCTCCCTCTCCCGCCGGAGTCACCTAGTGCAG	4000 fluorescence intensity (a.u.)
ACTTGTATAATAAAATTATAATGTAACGTGTACGTAACTTCGGAGTCACCTAGTGCAG	3860 fluorescence intensity (a.u.)
AGCCGAAGCCCTCCCTCGTGTCCGACGACGACGCAGGGCACGGAGTCACCTAGTGCAG	3370 fluorescence intensity (a.u.)
TTATAATACTGTATTCTTTCACACATCACCTTTTATCTCACGGAGTCACCTAGTGCAG	4470 fluorescence intensity (a.u.)
CTTTCCCCGCGCCATCGATCCACGCCATTATATAGCTGTCCGGAGTCACCTAGTGCAG	3390 fluorescence intensity (a.u.)
TGGAGCTAGTCAAGTAGACAGATCATACTATTCCCCAATTCGGAGTCACCTAGTGCAG	4150 fluorescence intensity (a.u.)
ATATAAGGTCGCCGCGGCGTCACCAACTTCCCACACACATCGGAGTCACCTAGTGCAG	4580 fluorescence intensity (a.u.)
TGTTCTTCCAAATCTGTCATGTGCAAGTATTACATAAACACGGAGTCACCTAGTGCAG	3510 fluorescence intensity (a.u.)
CGCCTCCAATTCTTCGCTACCGCCATGTCATGCTTCCCATCGGAGTCACCTAGTGCAG	6790 fluorescence intensity (a.u.)
AATTAAAACCGTGCCATTACCGTCACGTTTTCTATCAACTCGGAGTCACCTAGTGCAG	3270 fluorescence intensity (a.u.)
GACTGGGAGGATGAGGGGTGGGTGGGTGTGGCTGCTTCTGCGGAGTCACCTAGTGCAG	6000 fluorescence intensity (a.u.)
AAATGCATATAGAAAACTGACGTCAATGAATGATAATGATCGGAGTCACCTAGTGCAG	4630 fluorescence intensity (a.u.)

Sequence	binding signal
GGAACGCCATCGCCAGCCGCATCCGCCGCGCCGACGCCACCGGAGTCACCTAGTGCAG	24700 fluorescence intensity (a.u.)
GCCGACCGCCGGTGCGCACCTTCGCCGAGGGAGGAGGAGTCGGAGTCACCTAGTGCAG	26000 fluorescence intensity (a.u.)
TCCATTAGTGCAGTAGTAGTACTGAACTCTCTGTGGGTTGCGGAGTCACCTAGTGCAG	3700 fluorescence intensity (a.u.)
CTCCCTAGTCCACAAAACCTAGTGACGCGGCGAAACCCAACGGAGTCACCTAGTGCAG	5660 fluorescence intensity (a.u.)
CGCCATGGGAGCACTCCCCATCTTGTCCTCTACCGCCGCGCGGAGTCACCTAGTGCAG	3250 fluorescence intensity (a.u.)
ACAGGGCTCCACGGGCACCCGCGGATGACATCGGTGACCACGGAGTCACCTAGTGCAG	3210 fluorescence intensity (a.u.)
ATGCAACTTGTAGTGTAGGCTCAGAGCAGGCAAATAATTTCGGAGTCACCTAGTGCAG	3750 fluorescence intensity (a.u.)
AAATTCACAAATACCATACTGTAACATGTCACAGAGGTTGCGGAGTCACCTAGTGCAG	3210 fluorescence intensity (a.u.)
AACATAACCTATGCATGACTCATGCATCTGTGCTCCCCTACGGAGTCACCTAGTGCAG	15200 fluorescence intensity (a.u.)
ACTCGAAAGTGTGCCTCTTTATCCACCCGTTGCAGCGTTGCGGAGTCACCTAGTGCAG	3330 fluorescence intensity (a.u.)
ATTACGCAGTGAGCCCACATCCAAAGCCCACGACGAACAACGGAGTCACCTAGTGCAG	4010 fluorescence intensity (a.u.)
ACTTCCCCTTTCTTTTGTGACGTGCTATTCAGTTCTCTTTCGGAGTCACCTAGTGCAG	4390 fluorescence intensity (a.u.)
CAACAGACATCTTCCTGGAGGTGATGTCACAATATCCTTTCGGAGTCACCTAGTGCAG	7250 fluorescence intensity (a.u.)
AAAAGATTCGTCTCGCAATTTACACGTAACCTGTGTAATTCGGAGTCACCTAGTGCAG	7350 fluorescence intensity (a.u.)
CGTCCCTCACCACATTCGCTGTCGCCGTCCTCCGCACCCTCGGAGTCACCTAGTGCAG	3580 fluorescence intensity (a.u.)
CCCAAATATGATAGTACTCCAAGTTCGGCCTTTCGGCCCACGGAGTCACCTAGTGCAG	14800 fluorescence intensity (a.u.)
GATGCCGAAGAACCCGAGCCCGAGTCAGCGCCACTATCCTCGGAGTCACCTAGTGCAG	3230 fluorescence intensity (a.u.)
CCTGAGGAGGGAAGGGTCGATGTGGAGGAGCGGCGGCGACCGGAGTCACCTAGTGCAG	3500 fluorescence intensity (a.u.)
AGGTCGGGCCGGGGAAATATTCCACGTGGATCGGGCCCGGCGGAGTCACCTAGTGCAG	13800 fluorescence intensity (a.u.)
GCTCCCCGATGATCGCGTCGTCATCCGCTGCAACGACGCCCGGAGTCACCTAGTGCAG	5320 fluorescence intensity (a.u.)
AGATTCGTTTTCTGCGTTGTGATTTAGCCCATAAAGACCACGGAGTCACCTAGTGCAG	3940 fluorescence intensity (a.u.)
